Source: article PMC7862700
The list shows a part of the results, in another mix than the full data. At the low end of the ranking the order means little.

Molecular target: T1, ELK1 (UniProt P19419)
T1 sequence: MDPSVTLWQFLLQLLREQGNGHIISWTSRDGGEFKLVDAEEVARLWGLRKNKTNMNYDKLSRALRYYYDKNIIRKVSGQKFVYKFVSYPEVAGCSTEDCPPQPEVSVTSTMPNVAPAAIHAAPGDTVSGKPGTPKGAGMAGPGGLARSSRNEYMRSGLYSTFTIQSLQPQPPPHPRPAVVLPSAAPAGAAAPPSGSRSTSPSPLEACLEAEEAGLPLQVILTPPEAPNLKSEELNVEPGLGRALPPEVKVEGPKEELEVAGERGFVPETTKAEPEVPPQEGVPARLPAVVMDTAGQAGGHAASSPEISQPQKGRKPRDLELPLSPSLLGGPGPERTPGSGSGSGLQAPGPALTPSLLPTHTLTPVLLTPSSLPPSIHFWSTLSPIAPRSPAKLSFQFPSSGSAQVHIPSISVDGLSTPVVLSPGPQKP
Experiment: DAPPL (digital affinity profiling via proximity ligation, sequencing)
Conditions: 10 mM Tris-HCl pH 7.5, 50 mM NaCl, 1 mM DTT, 4% glycerol, room temperature, 30 min; GST-TFs on glutathione beads, 16-mer random dsDNA library, 0.1% …; high values mean tight binding; double strand, one strand shown; scale: fold enrichment (6-mer frequency, TF over GST control)

Sequence | binding signal
TGAGAC | 0.558
GACATA | 0.761
GGAGCT | 0.626
GGCTGA | 0.714
GAACGG | 0.608
CAGGGA | 0.538
GTGTCG | 0.654
TACAGT | 0.893
GAAGGC | 0.884
ATGAGT | 0.733
GGACGT | 0.575
GAGACT | 0.399
CGGAGA | 0.203
GCGTAA | 0.859
TGAGAG | 0.551
GGAGTG | 0.427
CAGCTG | 0.862
GTGTCA | 0.803
GTAGCC | 0.989
CGTGAG | 0.129

Sequence | binding signal
CCGTGT | 0.498
GGCAGA | 0.619
GTGGCG | 0.752
CCGAGA | 0.596
GAAGGA | 0.709
TGGGCC | 0.9
GGACCG | 0.87
AGGTGG | 0.579
GGCCGG | 0.576
GCAGTG | 0.556
ACAGGT | 0.828
GATCAG | 0.79
GCTGGG | 0.808
GCGCAA | 0.853
CGGTGG | 0.699
GCATAG | 0.791
TACGTG | 0.704
AGAGGA | 0.624
TCGGCG | 0.506

Molecular target: T2, ELK3 (UniProt P41970)
T2 sequence: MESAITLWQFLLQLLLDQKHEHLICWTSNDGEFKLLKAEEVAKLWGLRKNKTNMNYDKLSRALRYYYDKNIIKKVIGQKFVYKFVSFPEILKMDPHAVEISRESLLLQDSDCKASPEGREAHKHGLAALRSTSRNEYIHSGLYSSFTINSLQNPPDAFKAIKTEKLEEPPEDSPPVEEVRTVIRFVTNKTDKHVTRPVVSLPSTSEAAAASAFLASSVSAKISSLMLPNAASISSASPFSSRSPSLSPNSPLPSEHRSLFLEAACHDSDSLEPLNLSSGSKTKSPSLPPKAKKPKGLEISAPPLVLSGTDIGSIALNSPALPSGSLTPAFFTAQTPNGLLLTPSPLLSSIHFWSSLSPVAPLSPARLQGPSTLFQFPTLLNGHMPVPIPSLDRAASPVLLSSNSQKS
Experiment: as above
Conditions: 10 mM Tris-HCl pH 7.5, 50 mM NaCl, 1 mM DTT, 4% glycerol, room temperature, 30 min; GST-TFs on glutathione beads, 16-mer random dsDNA library, 0.1% …; high values mean tight binding; double strand, one strand shown; scale: fold enrichment (6-mer frequency, TF over GST control)

Sequence | binding signal
TGAGAC | 0.621
GACATA | 0.947
GGAGCT | 0.564
GGCTGA | 0.837
GAACGG | 0.699
CAGGGA | 0.455
GTGTCG | 0.572
TACAGT | 0.85
GAAGGC | 0.915
ATGAGT | 0.798
GGACGT | 0.637
GAGACT | 0.469
CGGAGA | 0.237
GCGTAA | 0.803
TGAGAG | 0.62
GGAGTG | 0.382
CAGCTG | 0.827
GTGTCA | 0.798
GTAGCC | 0.962
CGTGAG | 0.105

Sequence | binding signal
CCGTGT | 0.495
GGCAGA | 0.576
GTGGCG | 0.676
CCGAGA | 0.592
GAAGGA | 0.708
TGGGCC | 0.82
GGACCG | 0.748
AGGTGG | 0.685
GGCCGG | 0.614
GCAGTG | 0.615
ACAGGT | 0.729
GATCAG | 0.808
GCTGGG | 0.84
GCGCAA | 0.804
CGGTGG | 0.722
GCATAG | 0.769
TACGTG | 0.701
AGAGGA | 0.696
TCGGCG | 0.562

Molecular target: T3, SPIC (UniProt Q8N5J4)
T3 sequence: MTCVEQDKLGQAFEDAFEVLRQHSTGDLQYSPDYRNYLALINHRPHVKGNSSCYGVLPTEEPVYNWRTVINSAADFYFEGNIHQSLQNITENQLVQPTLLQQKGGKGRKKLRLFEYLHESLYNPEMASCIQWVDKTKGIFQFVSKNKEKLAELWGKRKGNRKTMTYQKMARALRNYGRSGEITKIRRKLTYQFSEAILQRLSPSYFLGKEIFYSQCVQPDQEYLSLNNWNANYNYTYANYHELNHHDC
Experiment: as above
Conditions: 10 mM Tris-HCl pH 7.5, 50 mM NaCl, 1 mM DTT, 4% glycerol, room temperature, 30 min; GST-TFs on glutathione beads, 16-mer random dsDNA library, 0.1% …; high values mean tight binding; double strand, one strand shown; scale: fold enrichment (6-mer frequency, TF over GST control)

Sequence | binding signal
TGAGAC | 0.578
GACATA | 0.823
GGAGCT | 0.525
GGCTGA | 0.811
GAACGG | 0.522
CAGGGA | 0.489
GTGTCG | 0.571
TACAGT | 0.851
GAAGGC | 0.928
ATGAGT | 0.859
GGACGT | 0.581
GAGACT | 0.447
CGGAGA | 0.2
GCGTAA | 0.808
TGAGAG | 0.601
GGAGTG | 0.333
CAGCTG | 0.963
GTGTCA | 0.844
GTAGCC | 0.955
